The values are deposited in ChEMBL (CHEMBL3988442, “University of Dundee, Small-Polar-MMV Screening Library” (2021)).

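Whole-cell assay for inhibitors of Mycobacterium tuberculosis growth, labelled Cornell in the record; the read-out is not stated. The concentration is filed as 10 mM, unlikely as a test dose, so the dose is not known. Higher means stronger inhibition (inferred from two other growth screens of the library). Of about 53,000 compounds tested this way, about 900 (1.7%) reached 50% or more in at least one test.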

The filed quantity is “Percent Effect” (%). The record does not define 0% and 100%; most values in the screen are far below 50% and negative numbers occur (in some assays of this library far below -100). The compounds are a random part of those screened.

SMILES,Percent Effect
COCc1cc(CNc2cnn(CC(F)F)c2)ccc1OC,-1.71
NC(=O)c1cccc(CNC/C=C/c2ccccc2)c1,-12.65
Cc1nccn1CCCNC(=O)C1CCCCN1Cc1ccncc1 (stereo not shown),13.88
O=C(CSc1nnc(N2CCOCC2)s1)NCc1cccs1,19.1
CN1CCN(Cc2cn3c(n2)CN(C(=O)c2cccn2C)CC3)CC1.O=C(O)C(F)(F)F.O=C(O)C(F)(F)F,12.73
O=C(c1cc(-n2cnnn2)ccc1Cl)N1CCN(c2ccccc2)CC1,32.37
Cc1cc(C)n(CC(=O)N2CCCCC2CCc2cccs2)c(=O)n1 (stereo not shown),10.78
CC(C)(C)Nc1nc(-c2cccnc2)c(-c2ccnc(NCCO)n2)s1,15.4
O=C(O)C(F)(F)F.[H][C@@]12CCN(c3nnc(C)s3)[C@]1([H])CC[C@@H](c1nc(C)no1)O2,-0.2476
CN(Cc1ccncc1)C(=O)NCc1nnc2n1CCCCC2,-25.56
CO[C@H]1CN(C(=O)c2cccc(C)n2)CC[C@@]12CCCO2,36.52
Cc1ccc(N2Cc3c(CN(C)C)nn(C)c3C2)nn1,16.67
CC(=O)N1CCc2c(nc(N(C)C)nc2NCCCn2ccnc2C)C1,2.793
[H][C@@]12CS(=O)(=O)C[C@]1([H])N(S(=O)(=O)N1CCCC1)CCN2CC,13.51
Cc1cnn(C2CN(CC(O)COCc3ccc4c(c3)OCO4)C2)c1 (stereo not shown),26.74
CCC1c2cccn2CCN1C(=O)c1cc(OC)nc(OC)n1 (stereo not shown),-47.1
CCCc1nc(N(C)Cc2ccco2)c2c(n1)c(C)nn2CC,49.43
O=C(O)C(F)(F)F.[H][C@@]12CCCO[C@]1([H])[C@H](N(C)C)CN2C(=O)Cc1ccsc1,-33.22
[H][C@@]12CN(c3nc(C)cnc3C)C[C@]1([H])N(Cc1ccccc1OC)C(=O)O2,14.43
[H][C@@]12CCN(Cc3c(C)noc3C)C[C@@]1([H])O[C@H](c1nccs1)C2,11.78
Cc1ccc(C(=O)N2CCC3(CC2)COC(COc2ccccn2)C3)o1.O=C(O)C(F)(F)F (stereo not shown),26.04
O=C(NCCNc1ncccn1)c1ccc(Br)cc1,-16.37
NC(=O)c1ccc(N2CCCCC2)c(NC(=O)c2cc(Br)ccc2F)c1,47.82
Cc1ccc(F)c(N2CCCC(Nc3nccn4cnnc34)C2=O)c1 (stereo not shown),-2.518
CC(C)CN(C)Cc1c[nH]nc1-c1ccc(F)cc1F,35.04
Cc1cnccc1-n1nc(C(C)C)nc1CCc1cnccn1,9.837
[H][C@]12CCCC(OCc3cccnc3)[C@@]1([H])CN(C(=O)c1cnc(C)cn1)C2 (stereo partly shown),10.79
Cc1noc(C)c1CN1CCc2ncnc(-c3ccoc3)c2CC1.O=C(O)C(F)(F)F,-7.689
NC(=O)NCCC(=O)N1CCC(c2cc(-c3ccccc3Cl)n[nH]2)CC1,34.08
COc1ccc(S(=O)(=O)NCCC(O)c2cc(C)oc2C)c(C)c1 (stereo not shown),39.57
Cc1ccc(C(N)=O)c(N2Cc3cnc(C(C)(C)C)nc3C2)n1,23.48
O=C(Cc1cc(-c2ccc3c(c2)OCO3)on1)NC1CCCC1,-5.702
Cc1nc(CN2CCC3(CC2)NC(=O)CC3c2cccnc2)cs1 (stereo not shown),26.98
O=C(O)C(F)(F)F.O=C(c1ccco1)N1CCCC2(CN(Cc3cccs3)CCO2)C1 (stereo not shown),4.185
Cc1nn(-c2ccccc2Cl)c(C)c1CCC(=O)NCCS(C)(=O)=O,0.4973
Cc1cnccc1-c1cnn(CCNC(=O)c2cccnc2)c1C1CC1.Cl,-5.574
Cc1ccc(C(F)(F)F)cc1NCC(=O)Nc1c(C)nn(C)c1C,37.13
O=C(CCC(=O)N1CCc2[nH]c3ccccc3c2C1)NCc1ccco1,4.131
O=C(c1cscn1)N1CCC(Cc2cnc3[nH]ccc3c2)C1 (stereo not shown),-1.779
CCOc1ncccc1-c1cc2c(cc1C(N)=O)OCO2,5.602
CN(C)CC1CN(Cc2ccc3c(c2)OCO3)Cc2nccn2C1.O=C(O)C(F)(F)F.O=C(O)C(F)(F)F (stereo not shown),-8.679
Cc1cc(NC(C)c2csc(C)n2)n2nc(C)c(C)c2n1 (stereo not shown),-12.71
CN1CCC(NC(=O)Nc2ccc(F)c(Br)c2)C1=O (stereo not shown),-9.143
N#Cc1ccnc(N2CCN(CC(O)c3ccc(F)cc3F)CC2)c1 (stereo not shown),2.702
NC(=O)Cn1ccnc1C1CCCN(Cc2nc3ccccc3s2)C1 (stereo not shown),-16.42
CN(Cc1nc(-c2ccco2)no1)C1CCCN(c2cccnn2)C1 (stereo not shown),-22.11
CS(=O)(=O)NCC1CCCN(c2ccc(C#N)cn2)C1 (stereo not shown),12.72
O=C(O)C(F)(F)F.O=C(O)C(F)(F)F.[H][C@@]12CCN(Cc3ccc(C)o3)C[C@]1([H])[C@@H](CN1CCCC1)OC2,-0.1038
CNC(=O)CNC(=O)Nc1ccc(F)c(Br)c1,14.48
COc1ccccc1NCC(=O)Nc1cnn(Cc2ccccn2)c1,-29.9
CCn1cc(CCC(=O)NCc2csc(C3CC3)n2)c(C)n1,27.62
[H][C@@]12CN(CC(CC)CC)C[C@]1([H])OCCN2Cc1cnn(C)c1,11.75
CC[C@H](CO)NC(=O)c1coc(COc2cccc(F)c2F)n1,-2.659
CC(CN1CCCC1=O)NC(=O)c1ccc(-c2ccco2)[nH]c1=O (stereo not shown),33.72
COc1c(C2CCCN2C(=O)c2cnc(C)cn2)c(C)nn1C (stereo not shown),-32.8
Cc1nn(C)c(Cl)c1C1CCCN1Cc1nnc(C2CC2)o1 (stereo not shown),17.57
COc1ccc(-c2cc(C(=O)NCCC(C)C)n(C)n2)cc1,20.81
O=C(NCCCn1ccnc1)N1CCCC1c1cccs1 (stereo not shown),12.02
COCC(=O)N1CCN(Cc2cccnc2)c2ncccc2C1.O=C(O)C(F)(F)F.O=C(O)C(F)(F)F,4.247

Once more, the final 7:

SMILES,Percent Effect
CC[C@H](CO)NC(=O)c1coc(COc2cccc(F)c2F)n1,-2.659
CC(CN1CCCC1=O)NC(=O)c1ccc(-c2ccco2)[nH]c1=O (stereo not shown),33.72
COc1c(C2CCCN2C(=O)c2cnc(C)cn2)c(C)nn1C (stereo not shown),-32.8
Cc1nn(C)c(Cl)c1C1CCCN1Cc1nnc(C2CC2)o1 (stereo not shown),17.57
COc1ccc(-c2cc(C(=O)NCCC(C)C)n(C)n2)cc1,20.81
O=C(NCCCn1ccnc1)N1CCCC1c1cccs1 (stereo not shown),12.02
COCC(=O)N1CCN(Cc2cccnc2)c2ncccc2C1.O=C(O)C(F)(F)F.O=C(O)C(F)(F)F,4.247